Two substances from publication PMC5787431 can be followed below.

Amino acid sequences for entries named in this document (tags omitted).
UniProt Q9UER7: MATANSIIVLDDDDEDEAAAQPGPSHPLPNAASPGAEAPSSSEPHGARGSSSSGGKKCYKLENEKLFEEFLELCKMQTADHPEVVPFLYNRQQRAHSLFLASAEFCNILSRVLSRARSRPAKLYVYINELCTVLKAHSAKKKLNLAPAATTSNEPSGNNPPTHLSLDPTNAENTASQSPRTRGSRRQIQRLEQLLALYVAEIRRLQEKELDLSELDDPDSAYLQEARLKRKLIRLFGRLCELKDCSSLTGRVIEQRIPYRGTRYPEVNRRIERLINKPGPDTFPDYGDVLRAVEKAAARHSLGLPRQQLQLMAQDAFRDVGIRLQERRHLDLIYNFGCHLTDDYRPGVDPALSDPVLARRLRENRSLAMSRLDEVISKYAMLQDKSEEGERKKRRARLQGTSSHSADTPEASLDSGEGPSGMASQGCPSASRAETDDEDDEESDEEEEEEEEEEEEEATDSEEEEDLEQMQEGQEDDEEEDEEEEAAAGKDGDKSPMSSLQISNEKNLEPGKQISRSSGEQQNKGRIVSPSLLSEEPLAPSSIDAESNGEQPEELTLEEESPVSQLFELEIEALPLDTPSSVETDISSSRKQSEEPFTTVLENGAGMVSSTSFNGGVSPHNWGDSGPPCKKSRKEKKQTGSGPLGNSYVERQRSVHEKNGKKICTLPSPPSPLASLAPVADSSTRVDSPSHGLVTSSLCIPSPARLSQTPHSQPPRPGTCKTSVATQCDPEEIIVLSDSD
UniProt Q9QR71: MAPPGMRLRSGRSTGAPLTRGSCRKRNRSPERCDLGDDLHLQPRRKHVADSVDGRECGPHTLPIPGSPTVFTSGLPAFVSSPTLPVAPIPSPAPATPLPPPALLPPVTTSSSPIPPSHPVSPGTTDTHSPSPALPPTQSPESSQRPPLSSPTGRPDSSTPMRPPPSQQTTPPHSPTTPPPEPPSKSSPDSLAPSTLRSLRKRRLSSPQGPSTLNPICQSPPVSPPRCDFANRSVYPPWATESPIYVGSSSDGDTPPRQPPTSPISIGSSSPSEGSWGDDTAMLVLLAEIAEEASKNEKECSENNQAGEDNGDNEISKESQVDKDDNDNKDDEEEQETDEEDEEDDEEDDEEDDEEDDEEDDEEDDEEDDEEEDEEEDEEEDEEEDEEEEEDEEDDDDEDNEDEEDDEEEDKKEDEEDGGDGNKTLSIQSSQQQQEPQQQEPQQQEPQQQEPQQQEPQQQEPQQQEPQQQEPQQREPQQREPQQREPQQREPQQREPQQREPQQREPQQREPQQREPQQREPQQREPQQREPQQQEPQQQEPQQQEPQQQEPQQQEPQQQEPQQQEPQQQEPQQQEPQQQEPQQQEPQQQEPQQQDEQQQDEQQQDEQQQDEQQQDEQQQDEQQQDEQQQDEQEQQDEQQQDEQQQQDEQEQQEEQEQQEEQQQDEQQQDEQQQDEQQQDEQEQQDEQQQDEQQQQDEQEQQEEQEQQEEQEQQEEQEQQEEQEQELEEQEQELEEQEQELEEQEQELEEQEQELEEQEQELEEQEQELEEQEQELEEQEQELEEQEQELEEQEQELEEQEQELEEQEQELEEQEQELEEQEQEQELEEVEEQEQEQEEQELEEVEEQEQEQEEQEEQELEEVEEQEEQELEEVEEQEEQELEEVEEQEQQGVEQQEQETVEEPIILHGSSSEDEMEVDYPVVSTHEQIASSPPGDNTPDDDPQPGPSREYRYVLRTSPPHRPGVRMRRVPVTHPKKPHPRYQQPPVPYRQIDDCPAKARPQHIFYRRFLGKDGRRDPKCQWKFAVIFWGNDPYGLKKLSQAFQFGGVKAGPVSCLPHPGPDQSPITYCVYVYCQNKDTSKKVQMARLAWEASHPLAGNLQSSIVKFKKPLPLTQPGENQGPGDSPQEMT

Results are given in words; binding and its absence hold for the method and conditions named. In cells and extracts the contact can be indirect. Some results given as binding are weak or reduced against the parent protein; the word gives no strength.

For the test, the target named is death domain-associated protein 6 (Daxx) (human (endogenous in BJAB and BC3)) (UniProt Q9UER7). Briefly: co-IP; immunoprecipitation with anti-Daxx antibody from lysates of LANA-expressing (B-L-YFP) and control (B-YFP) BJAB cells, and of KSHV-infected BC3 and KSHV-negative BJAB cells; RIPA buffer (50mM Tris-HCl pH 7.5, 150mM NaCl, 1mM EDTA, 1% NP-40), overnight at 4°C, protein A and G sepharose, Western blot.

“LANA (latency-associated nuclear antigen) of KSHV, viral protein in infected BC3 cells (from UniProt Q9QR71 1-1129)”: the binding entry was “binds”.
Next, “YFP-LANA-Flag (KSHV latency-associated nuclear antigen, lentiviral construct pLVx-AcYFP-C1-LANA-Flag) (from UniProt Q9QR71 1-1129)”: “binds”.
